# Library screening results

Chains of the proteins cited; added tags and fusions are not shown.
UniProt E9BF75, entry or part of it: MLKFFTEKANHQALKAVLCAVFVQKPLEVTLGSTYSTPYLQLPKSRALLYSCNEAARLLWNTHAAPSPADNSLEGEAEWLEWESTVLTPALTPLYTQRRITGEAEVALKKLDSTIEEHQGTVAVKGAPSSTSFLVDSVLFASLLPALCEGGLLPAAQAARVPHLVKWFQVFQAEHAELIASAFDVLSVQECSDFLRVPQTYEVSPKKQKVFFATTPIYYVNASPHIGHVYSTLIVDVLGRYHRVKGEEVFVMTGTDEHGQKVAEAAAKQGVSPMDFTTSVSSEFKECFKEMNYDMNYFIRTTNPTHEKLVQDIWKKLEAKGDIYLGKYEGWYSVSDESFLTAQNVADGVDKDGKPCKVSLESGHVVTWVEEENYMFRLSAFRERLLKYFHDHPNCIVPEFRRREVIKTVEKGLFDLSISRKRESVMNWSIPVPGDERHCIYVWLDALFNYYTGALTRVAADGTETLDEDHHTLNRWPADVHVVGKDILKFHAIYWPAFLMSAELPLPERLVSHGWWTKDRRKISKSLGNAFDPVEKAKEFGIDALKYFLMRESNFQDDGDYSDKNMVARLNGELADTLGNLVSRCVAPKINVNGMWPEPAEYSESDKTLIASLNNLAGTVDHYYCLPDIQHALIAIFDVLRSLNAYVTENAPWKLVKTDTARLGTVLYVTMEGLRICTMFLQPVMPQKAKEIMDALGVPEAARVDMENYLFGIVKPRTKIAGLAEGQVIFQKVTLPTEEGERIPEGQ

Source: ChEMBL document CHEMBL3988442, “University of Dundee, Small-Polar-MMV Screening Library” (2021).

Results are percentages, as filed. The record does not define 0% and 100%; most values in the screen are far below 50% and negative numbers occur (in some assays of this library far below -100). This is an unselected part of the compounds tested.

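Primary screen of methionyl-tRNA synthetase; the read-out is not stated. Target: Methionyl-tRNA synthetase (putative), Leishmania donovani (UniProt E9BF75). The test concentration is not given. The values are filed as inhibition. Of about 68,000 compounds tested this way, about 24 (0.035%) reached 50% or more in at least one test.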

compound | Inhibition
Cc1csc([C@@H]2C[C@@H]3CCN(C(=O)c4cc(C)on4)C[C@H]3O2)n1 | 14.71
Cc1ccc2c(c1)C1(CCNCC1)CC2NC(C)C (stereo not drawn) | 9.343
Cc1nc(Nc2nccs2)cc(C2CCCN2C2CCOCC2)n1 (stereo not drawn) | 17.47
CCC1=N[C@@]2(CC[C@@H]3CN(C(=O)NCC4CCCCC4)C[C@@H]32)C(=O)N1 | 6
O=C(C1CC1)N1CCCC(C2=Nc3ccccc3S(=O)(=O)N2)C1 (stereo not drawn) | 13.95
CN(C)CCNC(=O)c1cc(-c2cnc(N3CCCC3)nc2)cn1C | 3.833
CSc1ccc(NC(=O)Cc2cccc(O)c2)nc1 | 21.04
CCN(CC(C)C#N)C(=O)CSc1ccc(C(F)(F)F)cn1 (stereo not drawn) | 9.783
COCC(=O)N1CCC2(CC1)CN(c1ccsc1)C(=O)CO2 | 10.45
Cc1noc(C)c1CN1CCC[C@]2(C[C@@H](Oc3ccccn3)CO2)C1 | 9.89
NC1(c2nc(-c3cccs3)cc(=O)[nH]2)CCCC1 | 6.72
O=C(O)C1CCN(C[C@H]2CC[C@@H](Cc3ccc4c(c3)OCO4)O2)CC1 | 0.9926
CS(=O)(=O)N1CC[C@]2(O)CCN(c3cc(C#N)ccn3)C[C@@H]2C1 | 16.01
Cc1cccc(C)c1OCCNC(=O)C[S+]([O-])C1CCCC1 (stereo not drawn) | 15.03
Cc1noc(C)c1CN1CCCC2(C1)CN(Cc1nccn1C)CCO2 (stereo not drawn) | 11.85
O=C(O)c1ccc(=O)n(CC(c2ccc(Cl)cc2)N2CCCCCC2)c1 (stereo not drawn) | 13.35
COCCCNC(=O)c1cc(-c2cnc(N3CCOCC3)nc2)cn1C | 18.41
Cc1cc(-c2nn3c(C4CCC4)nnc3s2)on1 | 8.943

Some entries from above, unchanged:

| compound | Inhibition |
|---|---|
| `Cc1ccc2c(c1)C1(CCNCC1)CC2NC(C)C` (stereo not drawn) | 9.343 |
| `COCCCNC(=O)c1cc(-c2cnc(N3CCOCC3)nc2)cn1C` | 18.41 |